Earlier results, collected in US12527814B2, “Treatment of an ocular infection, composition and methods thereof” (priority 2019, dated 2026).
For at least one compound, name, drawing or mass did not settle the structure.

Tested on: Tsukamurella
Conditions: literature refs 3, 12; cited from earlier work

C[C@H]1COc2c(N3CCN(C)CC3)c(F)cc3c(=O)c(C(=O)O)cn1c23 [levofloxacin]
susceptibility of Tsukamurella to topical antibiotic eye drops: susceptible

CN(C)[C@@H]1C(O)=C(C(N)=O)C(=O)[C@@]2(O)C(O)=C3C(=O)c4c(O)cccc4[C@@](C)(O)[C@H]3C[C@@H]12 [tetracycline]
susceptibility of Tsukamurella to topical antibiotic eye drops: generally resistant
